Data as given in paper PMC4842972, “Identification of residues crucial for the interaction between human neuroglobin and the α-subunit of heterotrimeric Gi protein” (Scientific Reports, 2016).
Changes are numbered by the printed parent chain. No constants are given. Whether binding was seen depends on the method and setting. Tags and fused reporters may be left off the sequences shown. Values belong to the substance of their own block, whether it stands above or below them.

By UniProt entry, the sequences of proteins in these tests, tags left out. Where a name states a change or a piece, a line headed by the entry shows the natural chain unless it says otherwise. Chains listed by the source or under a name are the forms on record and can include a tag or linker. Residues count along the entry.
human WT truncated Gαi1 protein (residues 26-354), GDP-bound form (P63096, residues 26-354): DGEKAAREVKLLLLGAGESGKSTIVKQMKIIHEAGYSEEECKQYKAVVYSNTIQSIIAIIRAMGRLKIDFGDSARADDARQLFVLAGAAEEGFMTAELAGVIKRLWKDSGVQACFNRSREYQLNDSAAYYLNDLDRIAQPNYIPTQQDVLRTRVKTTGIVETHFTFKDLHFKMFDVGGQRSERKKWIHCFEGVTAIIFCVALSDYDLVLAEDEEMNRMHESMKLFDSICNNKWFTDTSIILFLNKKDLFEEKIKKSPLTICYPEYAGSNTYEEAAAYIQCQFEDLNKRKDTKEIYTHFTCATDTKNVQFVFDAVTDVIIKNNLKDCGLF
human truncated Gαi1 K70A single mutant, GDP-bound form (P63096, form named): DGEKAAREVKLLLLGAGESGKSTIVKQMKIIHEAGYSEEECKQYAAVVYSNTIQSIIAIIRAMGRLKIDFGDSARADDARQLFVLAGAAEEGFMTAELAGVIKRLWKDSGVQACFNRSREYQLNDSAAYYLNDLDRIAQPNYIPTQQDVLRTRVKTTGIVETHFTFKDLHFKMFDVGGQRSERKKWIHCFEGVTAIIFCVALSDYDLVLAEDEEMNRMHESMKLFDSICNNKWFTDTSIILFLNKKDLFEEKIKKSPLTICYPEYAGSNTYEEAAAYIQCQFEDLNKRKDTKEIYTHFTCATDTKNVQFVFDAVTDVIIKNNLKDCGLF
human truncated Gαi1 R208A, K209A, K210A triple mutant, GDP-bound form (P63096, form named): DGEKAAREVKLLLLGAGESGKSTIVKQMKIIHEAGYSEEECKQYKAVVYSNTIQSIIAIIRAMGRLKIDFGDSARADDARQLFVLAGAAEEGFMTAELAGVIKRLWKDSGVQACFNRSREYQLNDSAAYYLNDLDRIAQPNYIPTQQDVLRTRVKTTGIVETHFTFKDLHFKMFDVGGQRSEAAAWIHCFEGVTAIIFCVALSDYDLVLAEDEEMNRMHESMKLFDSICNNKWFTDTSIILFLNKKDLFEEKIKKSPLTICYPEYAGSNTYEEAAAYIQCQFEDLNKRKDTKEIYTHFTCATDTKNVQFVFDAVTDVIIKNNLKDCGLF
human truncated Gαi1 K46A single mutant, GDP-bound form (P63096, form named): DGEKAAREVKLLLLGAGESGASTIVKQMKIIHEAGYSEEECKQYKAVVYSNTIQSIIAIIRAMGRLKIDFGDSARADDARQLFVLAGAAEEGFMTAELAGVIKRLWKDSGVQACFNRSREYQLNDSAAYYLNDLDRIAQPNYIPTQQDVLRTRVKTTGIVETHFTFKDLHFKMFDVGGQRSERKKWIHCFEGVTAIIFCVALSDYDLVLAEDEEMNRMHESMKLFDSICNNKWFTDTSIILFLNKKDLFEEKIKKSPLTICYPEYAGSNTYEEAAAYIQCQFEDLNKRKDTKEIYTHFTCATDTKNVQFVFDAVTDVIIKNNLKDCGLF

Legend:
Experiment in all cases: pull-down; GST-ferric Ngb (or GST alone) immobilised on glutathione-Sepharose 4B beads, incubated with truncated Gαi1; 10 mM HEPES, 150 mM NaCl, 10 mM MgCl2, 10 uM GDP, 0.1% Tween20, pH 7.4; 1 h at 4 °C; Western blot with anti-Gαi1 monoclonal antibody; both purified
[1] = target: T1, GST-human ferric WT Ngb (neuroglobin) (human) (UniProt Q9NPG2)
T1 sequence: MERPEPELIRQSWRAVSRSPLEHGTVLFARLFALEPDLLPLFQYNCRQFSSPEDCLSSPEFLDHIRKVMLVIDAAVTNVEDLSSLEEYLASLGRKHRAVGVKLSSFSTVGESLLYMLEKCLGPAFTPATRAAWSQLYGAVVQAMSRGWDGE

[2] = target: T2, GST-human ferric E53Q Ngb mutant (human) (UniProt Q9NPG2)
T2 sequence: T1 sequence with E53Q

[3] = target: T3, GST-human ferric E151N Ngb mutant (human) (UniProt Q9NPG2)
T3 sequence: T1 sequence with E151N

[4] = target: T4, GST-human ferric E118Q Ngb mutant (human) (UniProt Q9NPG2)
T4 sequence: T1 sequence with E118Q

[5] = target: T5, GST-human ferric R97Q Ngb mutant (human) (UniProt Q9NPG2)
T5 sequence: T1 sequence with R97Q

[6] = target: T6, GST-human ferric E60Q Ngb mutant (human) (UniProt Q9NPG2)
T6 sequence: T1 sequence with E60Q

binding [1]: no binding
Substance: human truncated Gαi1 K70A single mutant, GDP-bound form (from UniProt P63096 26-354) (domain or fragment)

binding [1]: no binding
Substance: human truncated Gαi1 R208A, K209A, K210A triple mutant, GDP-bound form (from UniProt P63096 26-354) (domain or fragment)

binding [2]: no binding
binding [3]: no binding
binding [4]: no binding
binding [5]: no binding
binding [6]: no binding
Substance: human WT truncated Gαi1 protein (residues 26-354), GDP-bound form (from UniProt P63096 26-354) (domain or fragment)

binding [1]: no binding
Substance: human truncated Gαi1 K46A single mutant, GDP-bound form (from UniProt P63096 26-354) (domain or fragment)
